Results reported in article PMC5467242.
These are yes or no findings as the source states them, for the method shown. In cells and extracts the contact can be indirect. Some results given as binding are weak or reduced against the parent protein; the word gives no strength. For part of these data: Sequences can lack the tags named with a protein.

Amino acid sequences for entries named in this document (tags omitted).
UniProt A2BH40: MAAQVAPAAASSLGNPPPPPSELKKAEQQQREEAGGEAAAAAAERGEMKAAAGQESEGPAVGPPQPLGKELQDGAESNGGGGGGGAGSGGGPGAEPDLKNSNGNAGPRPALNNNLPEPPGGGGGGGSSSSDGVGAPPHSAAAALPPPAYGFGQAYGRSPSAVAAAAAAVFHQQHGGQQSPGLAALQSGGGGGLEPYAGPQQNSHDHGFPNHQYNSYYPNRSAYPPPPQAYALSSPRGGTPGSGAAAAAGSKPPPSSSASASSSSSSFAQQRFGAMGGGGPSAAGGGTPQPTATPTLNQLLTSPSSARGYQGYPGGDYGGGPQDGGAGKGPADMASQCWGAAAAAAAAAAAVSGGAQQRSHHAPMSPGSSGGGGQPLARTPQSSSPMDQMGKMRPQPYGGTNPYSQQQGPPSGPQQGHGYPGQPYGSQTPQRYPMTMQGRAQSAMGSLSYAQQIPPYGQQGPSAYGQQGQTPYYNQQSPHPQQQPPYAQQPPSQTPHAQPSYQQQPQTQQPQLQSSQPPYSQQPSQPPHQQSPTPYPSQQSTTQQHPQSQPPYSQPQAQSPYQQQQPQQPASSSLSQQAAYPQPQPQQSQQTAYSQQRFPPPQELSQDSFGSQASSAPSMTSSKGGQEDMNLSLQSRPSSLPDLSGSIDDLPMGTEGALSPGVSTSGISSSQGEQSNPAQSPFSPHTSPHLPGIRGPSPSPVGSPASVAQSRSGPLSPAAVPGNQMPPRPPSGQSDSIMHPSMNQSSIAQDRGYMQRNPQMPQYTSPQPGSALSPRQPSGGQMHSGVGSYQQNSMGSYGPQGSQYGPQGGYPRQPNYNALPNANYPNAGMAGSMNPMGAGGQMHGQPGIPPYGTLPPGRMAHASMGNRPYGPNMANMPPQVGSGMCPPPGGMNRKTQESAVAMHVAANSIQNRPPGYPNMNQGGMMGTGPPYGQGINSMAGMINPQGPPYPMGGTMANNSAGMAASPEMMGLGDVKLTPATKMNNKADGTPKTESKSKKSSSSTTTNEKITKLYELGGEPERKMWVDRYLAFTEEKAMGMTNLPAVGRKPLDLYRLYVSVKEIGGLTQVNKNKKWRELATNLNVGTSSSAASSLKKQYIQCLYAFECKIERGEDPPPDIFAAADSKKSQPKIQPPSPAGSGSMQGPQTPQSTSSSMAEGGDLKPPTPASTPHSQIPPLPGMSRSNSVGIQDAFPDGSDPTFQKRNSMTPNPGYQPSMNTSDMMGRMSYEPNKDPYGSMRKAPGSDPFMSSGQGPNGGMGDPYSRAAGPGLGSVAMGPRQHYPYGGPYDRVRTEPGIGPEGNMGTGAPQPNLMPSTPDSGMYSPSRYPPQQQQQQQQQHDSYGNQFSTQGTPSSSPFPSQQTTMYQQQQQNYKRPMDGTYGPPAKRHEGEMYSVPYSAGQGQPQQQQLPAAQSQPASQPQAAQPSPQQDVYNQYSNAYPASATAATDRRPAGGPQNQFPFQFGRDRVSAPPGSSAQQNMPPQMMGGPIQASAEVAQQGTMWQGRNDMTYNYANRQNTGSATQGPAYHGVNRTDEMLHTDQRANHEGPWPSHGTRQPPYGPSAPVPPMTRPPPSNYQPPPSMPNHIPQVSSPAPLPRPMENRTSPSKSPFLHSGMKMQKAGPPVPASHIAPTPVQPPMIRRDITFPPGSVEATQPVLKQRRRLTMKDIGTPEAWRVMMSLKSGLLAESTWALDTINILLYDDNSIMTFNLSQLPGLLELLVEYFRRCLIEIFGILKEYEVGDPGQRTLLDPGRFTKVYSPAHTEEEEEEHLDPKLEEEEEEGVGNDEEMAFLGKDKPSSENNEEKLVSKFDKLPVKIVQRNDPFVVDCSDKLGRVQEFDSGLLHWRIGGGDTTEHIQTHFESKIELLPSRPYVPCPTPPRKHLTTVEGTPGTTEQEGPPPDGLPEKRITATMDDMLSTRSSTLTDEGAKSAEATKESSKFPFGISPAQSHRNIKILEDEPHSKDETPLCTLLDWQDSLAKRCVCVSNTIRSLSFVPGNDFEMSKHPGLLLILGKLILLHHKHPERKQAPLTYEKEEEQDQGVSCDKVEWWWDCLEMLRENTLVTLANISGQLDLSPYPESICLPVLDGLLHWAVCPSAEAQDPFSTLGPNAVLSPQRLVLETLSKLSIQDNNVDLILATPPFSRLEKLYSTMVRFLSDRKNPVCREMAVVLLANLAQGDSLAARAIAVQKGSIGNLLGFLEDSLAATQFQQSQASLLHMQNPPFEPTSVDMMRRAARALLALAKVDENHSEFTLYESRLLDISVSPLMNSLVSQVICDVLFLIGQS

T1: WASH (mouse (endogenous in ILC3 cells)) (UniProt Q8VDD8)
T1 sequence: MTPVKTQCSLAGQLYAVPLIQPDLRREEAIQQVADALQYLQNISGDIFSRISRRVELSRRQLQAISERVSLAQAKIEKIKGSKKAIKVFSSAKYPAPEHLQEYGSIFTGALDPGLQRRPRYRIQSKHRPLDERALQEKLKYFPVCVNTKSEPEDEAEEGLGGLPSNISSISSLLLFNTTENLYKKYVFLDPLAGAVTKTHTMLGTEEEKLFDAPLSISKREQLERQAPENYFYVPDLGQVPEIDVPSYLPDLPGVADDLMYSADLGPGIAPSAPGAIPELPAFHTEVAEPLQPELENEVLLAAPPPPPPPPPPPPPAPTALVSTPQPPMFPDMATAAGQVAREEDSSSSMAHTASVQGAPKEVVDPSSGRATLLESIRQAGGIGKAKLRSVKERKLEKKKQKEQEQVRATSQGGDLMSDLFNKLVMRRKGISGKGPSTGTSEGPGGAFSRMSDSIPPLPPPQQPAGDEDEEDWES

T2: GST-WASH (mouse) (UniProt Q8VDD8)
T2 sequence: T1 sequence

B1: HA-tagged WASH (protein, UniProt Q8VDD8 1-475)
chain: T1 sequence

Tests used:
[1] = molecular target: T1, WASH (mouse (endogenous in ILC3 cells)); experiment: co-IP; 4 x 10^5 NKp46+ ILC3 cells; nuclear pellets lysed in RIPA buffer, lysates treated by DNase I, anti-WASH antibody, protein A/G agarose, immunoblot
GST-WASH (mouse) = molecular target: T2, GST-WASH (mouse); experiment: pull-down; GST-WASH incubated with LPL lysates of small intestine, GST pulldown; only the target purified
[2] = molecular target: Flag-tagged WT Arid1a (mouse) (UniProt A2BH40); experiment: co-IP; Flag-tagged WT or truncated Arid1a co-transfected with HA-tagged WASH into NK92 cells, immunoprecipitation with antibody against Flag

Row | Molecule | binding [1] | binding (GST-WASH (mouse)) | binding [2]
1 | Arid1a (from UniProt A2BH40 1-2283) | binds | binds | –
2 | B1 | – | – | binds
